Source: patent US11299710B2, “Brown adipocyte progenitors in human skeletal muscle” (ENERGESIS PHARMACEUTICALS, INC., priority 2011, dated 2022)
At least one compound was matched to its structure with a doubt left.

Assays:
[1] = test system: CD31- cells (CD34+/CD45-/CD56-/CD146-/CD31-) from human fetal skeletal muscle; test: Differentiation of CD31- cells into adipocyte-like multilocular cells / brown adipocytes; assay type: cell-based
Protocol: (§1) With the aim of further purifying the CD34+ cells in search for the purest physiological brown adipocyte progenitors, stroma-vascular cells were purified from two independent samples of human fetal skeletal muscle (18-19 weeks of gestation). Following the CD45, CD56, CD34, and CD146 sorting described above, an additional step of FACS sorting using an anti-CD31 antibody was performed. The cells were sorted based on the presence of the mature endothelial cell surface marker CD31 (CD31+) or absence of that marker (CD31-). It was hypothesized that the CD31− subpopulation may be a purer progenitor of human brown adipocytes. The CD31− cell fraction amounted to about 80% of the CD34+ cell population derived from skeletal muscle. For purpose of simplicity, CD34+/CD45−/CD56−/CD146−/CD31− are called “CD31−” cells [EMC309 (CD31−) and EMC314 (CD31−)]. CD34+/CD45−/CD56−/CD146−/CD31+ are called “CD31+” cells [EMC309 (CD31+) and EMC314 (CD31+)]. In addition, the myogenic progenitor cells expressing the cell surface antigen CD56 (CD56+) were also sorted and cultured: CD34+/CD45−/CD56+ (from EMC314) and CD45−/CD56+ (from EMC309) are called “CD56+” cells [EMC309 (CD56+) and EMC314 (CD56+)].
(§2) The sorted cells (CD31−, CD31+, and CD56+ cell populations) were grown under the same conditions as described above, i.e., 2-4 days in proliferation medium (EGM2) and 10-16 days in adipogenic differentiation medium. […]

CD56+ cells = test: Differentiation of CD56+ cells in adipogenic medium; assay type: cell-based, human; settings: MDM with or without rosiglitazone or BMP7
Protocol: as §1, §2

[2] = test system: CD31+ cells (CD34+/CD45-/CD56-/CD146-/CD31+); test: Differentiation of CD31+ cells in adipogenic medium; assay type: cell-based, human; settings: MDM with or without rosiglitazone or BMP7
Protocol: as §1, §2

[3] = 7 obese type 2 diabetes patients; 8 weeks, 2×4 mg per day; cited from earlier work
[4] = test system: UCP1 mRNA in human skeletal muscle (vastus lateralis); test: UCP1 mRNA expression in skeletal muscle biopsies before and after rosiglitazone treatment in vivo; settings: individual patients 1-7; 8 weeks rosiglitazone 2×4 mg per day
Protocol: Since the PPARγ agonist rosiglitazone was a strong inducer of UCP1 mRNA expression in muscle CD34+ cells in culture, the effect of this compound in vivo in humans was investigated. Vastus lateralis muscle biopsies from 7 obese patients with type 2 diabetes mellitus treated for the management of their metabolic syndrome with rosiglitazone were used. The biopsies were obtained before and after 8 weeks of treatment with rosiglitazone (2×4 mg per day). […] In that study rosiglitazone, concomitantly with the improvement in insulin sensitivity, increased the level of expression of UCP1 in muscle by about 1.6-fold. […] The results are the means±s.e.m. of arbitrary values normalized using the corresponding cyclophilin A values (n=7, *p<0.05 vs. control).
In FIG. 5, showing UCP1 mRNA levels in skeletal muscle biopsies from a patient group (n=7), “control” corresponds to levels before treatment, and “Rosi” corresponds to levels after treatment (8 weeks) with rosiglitazone. Being a longitudinal study the effect of rosiglitazone on UCP1 levels in each individual (comparison of individual values for the “control”-before and “Rosi”-after conditions) were determined. […]
Primers used for real time quantitative PCR in human skeletal muscle are as follows:
Data are expressed as means±s.e.m. Significances were evaluated using the unpaired Student's t-test. […]

CN(CCOc1ccc(CC2SC(=O)NC2=O)cc1)c1ccccn1 (stereo not drawn) [rosiglitazone]
differentiation of CD31- cells into brown adipocytes ([1]; 1 microM, from day 0 or for 2-3 days only from day -3 or -2 to day 0): strongly promoted | fraction of CD31- cells differentiated into adipocyte-like multilocular cells ([1]; MDM containing the compound): virtually all | differentiation of CD56+ cells into adipocyte-like multilocular cells (CD56+ cells): did not differentiate | differentiation of CD31+ cells into adipocyte-like multilocular cells [2]: did not differentiate | patients' insulin resistance and diabetes [3]: significant improvement | increase of UCP1 level at end of treatment vs. before treatment [4]: no change
